# Primary screen of a compound library

By UniProt entry, the sequences of proteins in these tests, tags left out.
UniProt P9WPC5, whole entry: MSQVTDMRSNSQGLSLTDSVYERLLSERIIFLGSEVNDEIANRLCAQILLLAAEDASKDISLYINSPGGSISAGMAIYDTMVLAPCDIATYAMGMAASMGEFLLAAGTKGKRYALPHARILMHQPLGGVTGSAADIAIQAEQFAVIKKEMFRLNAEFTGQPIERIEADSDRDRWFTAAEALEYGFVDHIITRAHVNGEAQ
UniProt P9WPC3, whole entry partner: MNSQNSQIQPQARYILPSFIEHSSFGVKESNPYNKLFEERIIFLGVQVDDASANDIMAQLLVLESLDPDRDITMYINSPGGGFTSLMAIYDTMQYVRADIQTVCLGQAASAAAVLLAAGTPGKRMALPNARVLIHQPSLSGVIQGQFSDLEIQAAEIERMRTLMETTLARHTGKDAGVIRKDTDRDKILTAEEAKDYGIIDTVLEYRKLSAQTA
UniProt P9WFT3, whole entry: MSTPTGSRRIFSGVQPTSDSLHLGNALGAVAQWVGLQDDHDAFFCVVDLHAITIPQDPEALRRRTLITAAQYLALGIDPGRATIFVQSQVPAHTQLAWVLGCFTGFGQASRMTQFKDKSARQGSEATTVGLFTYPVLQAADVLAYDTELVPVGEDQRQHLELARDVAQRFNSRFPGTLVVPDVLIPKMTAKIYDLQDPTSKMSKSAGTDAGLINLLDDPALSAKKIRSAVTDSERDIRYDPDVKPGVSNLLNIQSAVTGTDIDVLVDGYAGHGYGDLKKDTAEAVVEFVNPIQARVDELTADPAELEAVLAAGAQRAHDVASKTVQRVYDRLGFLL
UniProt P9WNZ1, whole entry: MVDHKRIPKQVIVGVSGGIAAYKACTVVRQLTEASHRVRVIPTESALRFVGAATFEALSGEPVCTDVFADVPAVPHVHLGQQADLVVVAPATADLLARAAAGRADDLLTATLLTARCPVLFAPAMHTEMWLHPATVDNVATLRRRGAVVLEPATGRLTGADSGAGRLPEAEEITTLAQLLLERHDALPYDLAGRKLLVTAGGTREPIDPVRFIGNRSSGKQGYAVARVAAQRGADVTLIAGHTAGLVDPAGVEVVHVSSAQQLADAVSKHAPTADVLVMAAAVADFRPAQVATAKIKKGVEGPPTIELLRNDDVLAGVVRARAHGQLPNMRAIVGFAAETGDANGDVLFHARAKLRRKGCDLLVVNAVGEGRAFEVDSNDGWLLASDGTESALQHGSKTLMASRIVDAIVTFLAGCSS

Source: ChEMBL document CHEMBL3988442, “University of Dundee, Small-Polar-MMV Screening Library” (2021).

A: 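ClpP1P2, Mycobacterium tuberculosis (UniProt P9WPC5 and UniProt P9WPC3). Protease assay of ClpP1P2, read by the AMC dye that it sets free. Compounds at 50 µM. Higher reads as stronger inhibition, judged from the few compounds that gave an IC50. Most other retested compounds had strongly negative values. Of about 69,000 compounds tested this way, about 10 (0.015%) reached 50% or more in at least one test.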
B: 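Assay of Toxoplasma gondii numbers, read through their beta-galactosidase reporter with a colour substrate. Tested at 10 µM. Higher reads as fewer parasites (inferred from which compounds were picked for retests). Size under these conditions: about 67,000 compounds, about 260 of them at 50% or above in at least one test.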
C: 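Tryptophan-tRNA ligase, Mycobacterium tuberculosis (UniProt P9WFT3). Enzyme assay of tryptophanyl-tRNA synthetase; the read-out is not stated. Tested at 10 µM. Higher most likely means stronger inhibition; the record gives no direction and few retests gave an IC50. Size under these conditions: about 65,000 compounds, about 64 of them at 50% or above in at least one test.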
D: 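Enzyme assay of CoaBC with a phosphate dye (Biomol Green) read at 650 nm. Target: Coenzyme A biosynthesis protein CoaBC, Mycobacterium tuberculosis (UniProt P9WNZ1). Tested at 30 µM. Direction is inferred from only a few compounds that gave an IC50; most scored high, so higher reads as stronger inhibition. Most strong results did not repeat in a second test. Size under these conditions: about 67,000 compounds, about 40 of them at 50% or above in at least one test.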

Values are the deposited “Percent Effect”, in %.
The record does not define 0% and 100%; most values in the screen are far below 50% and negative numbers occur (in some assays of this library far below -100).
Compounds were drawn at random from those tested, without regard to their results.
Two or more numbers in one place are separate tests of the same structure; such repeats can differ widely.
A dash means the value is not listed here; it may have been measured.

SMILES	A	B	C	D
CCC[C@H]1CN(Cc2nccn2C)C[C@@H]1NC(=O)C1(COC)CCC1	-0.3083	-1.634	-1.548	-
CCNC(=O)C1(Cc2cc(-c3ccccc3)no2)CCCN(C)C1 (stereo unspecified)	-19.05	21.12	3.312	5.67 and 23.54
CC(C)CN1CCCn2nc(CNC(=O)OCc3ccccc3)cc2C1	-15.25	11.49	-4.204	-1.961
CCN1C[C@H]2[C@@H](C1)N(S(=O)(=O)c1ccccc1F)CC[C@H]2OC	1.062	-	-3.284	-5
Cc1ccc(C(=O)N2CCSCC2)cc1NC(=O)NCC1CCC1	-20.47	17.83	3.612	4.39
O=C(c1cnco1)N1C[C@@H](O)[C@H](Oc2cccc(F)c2)C1	-10.32	3.036	-	8.798
CN(Cc1cc2n(n1)CCN(C(=O)[C@H]1CCCO1)C2)Cc1nccs1	11.01	-2.62	27.72	9.63
COc1ccc(Nc2nc(N)c(C(C)=O)s2)cc1OC	-2.271	2.644	1.84	0.2532
O=C(c1ccccn1)N1C[C@@H]2CC[C@H](C1)N(C(=O)CCN1CCCC1)C2	13.66	-	4.71	2.292
O=C(CCc1nccs1)N1CCN(c2ccc(Br)cn2)CC1	1.705	2.894	-3.675	2.821
O=C(Nc1ccccc1OCc1ccccn1)NC1CCOCC1	5.737	4.746	-3.532	-
Cc1cc(CN(C)C2CCN(c3cccc(-c4cscn4)c3)CC2)on1	-2.39	-0.5187	-4.93	1.44
Cc1cc(NC(C)C(=O)NCc2ccccc2)nc(-c2ccncc2)n1 (stereo unspecified)	1.169	9.029	6.505	-17.22
CCN(CC(=O)NC)C(=O)Cc1nc(-c2ccco2)oc1C	-7.869	0.4405	-1.421	-2.679
CN(C)C(=O)c1ccc2c(c1)N(C)C(CC(=O)NCCC(C)(C)C)CO2 (stereo unspecified)	-2.369	14.54	-3.791	10.13
c1nc2c(c(-c3ccsc3)n1)CCN(Cc1ccoc1)CC2	-3.935	-	8.63	-6.004
Cc1nc2ccnn2c(C)c1CCC(=O)N1CCSCC1	-7.561	3.071	-5.952	3.259
O=C(c1ncccn1)N1C[C@@H]2COC[C@]2(c2nnc(C3CC3)o2)C1	-0.6861	-	-0.7229	0.8157
Cc1ccc(CN(C)C)cc1NC(=O)C1CC=CC1	-2.507	-0.3236	-0.7064	-
CC(Cn1cccn1)C(=O)N1CCCN(Cc2cscn2)CC1 (stereo unspecified)	3.771	34.64	-1.555	4.237
Cc1cc(C(=O)N2CCCC(O)(CN3CCCC3)C2)ccc1Cl (stereo unspecified)	-7.069	0.5508	10.42	10.71
COc1ccccc1/C=C/CNCC1CCc2nncn2C1 (stereo unspecified)	10.41	16.43	-1.214	10.68
Cc1nccn1[C@@H]1CC[C@@H](NC(=O)Cn2c(C)nc3ccccc32)[C@H]1O	-20.04	16.98	-2.64	3.425
Cc1cnn(CCNCC(O)c2cccc(Br)c2)c1 (stereo unspecified)	-2.553	3.366	-2.786	-2.232
O=C(c1cocn1)N1C[C@@H]2CN(Cc3ccco3)CCO[C@@H]2C1	1.382	-	1.1	-15.77
COc1cccc(-c2noc(C3CCN(Cc4cccs4)C3)n2)c1.Cl (stereo unspecified)	-	7.425	-	-
Cc1ocnc1C(=O)N(C)[C@@H]1CC[C@@H](n2ccnc2C)[C@@H]1O	-15.69	-6.226	-4.777	15.3
O=C(O)C(F)(F)F.O=C(O)C(F)(F)F.O=C(O)C(F)(F)F.[H][C@@]12CN(Cc3cnn(C)c3)C[C@]1([H])OCCN2CCN(C)C	-	3.456	-	-
CCn1c(CN2CCCC(O)(c3ccc(F)cc3)CC2)cnc1SC (stereo unspecified)	-6.018	-	2.995	8.852
CC(=O)Nc1sccc1C(=O)C(C)(C)C	-1.869	9.401	1.397	-2.213
Cn1cc(CCNCc2cc(Br)c3c(c2)OCO3)cn1	-26.66	-9.805	14.35	5.115
Cn1ncc2c(NCCC34CCCN3CCC4)nc(C3CCCC3)nc21	-0.7934	-2.189	1.212	-42.43
Nc1nnc(CCNC(=O)c2cccc(C3CCCNC3)c2)s1 (stereo unspecified)	5.934	0.7956	-1.342	-8.929
CC(=O)N1[C@H](Cn2cncn2)C[C@@H]2CN(c3ncc(F)cn3)CC[C@@H]21	-20.84	-	-0.2788	1.29
Fc1ccccc1-c1nnn(CCCc2nn[nH]n2)n1	-6.214	0.609	0.2154	-1.734
O=C(O)C(F)(F)F.O=C(O)C(F)(F)F.O=C(O)c1cc2c(nc1-c1ccoc1)CCN(Cc1ccco1)CC2	-	-32.84	-	-
CN(Cc1ccccc1-n1cccn1)C[C@@H]1CCCN2CCCC[C@H]12	-7.649	-	1.816	5.353
Cn1cc(CNC2CCC(O)CC2)c(-c2cc3ccccc3o2)n1 (stereo unspecified)	-10.94	-	-1.459	-1.489
CCc1nc(CN2CCCC(NCc3cccc(C(N)=O)c3)C2)no1 (stereo unspecified)	-21.71	4.499	-5.136	4.592
COCC1CN(C(=O)c2ccoc2)Cc2cnn(CC3CCOCC3)c21 (stereo unspecified)	2.433	-	-	2.927
COCc1ncn2c1CN(C(=O)c1ccco1)CC2	-12.08	12.63	0.9982	-4.444

Once more, the final 4:

SMILES	A	B	C	D
Cn1cc(CNC2CCC(O)CC2)c(-c2cc3ccccc3o2)n1 (stereo unspecified)	-10.94	-	-1.459	-1.489
CCc1nc(CN2CCCC(NCc3cccc(C(N)=O)c3)C2)no1 (stereo unspecified)	-21.71	4.499	-5.136	4.592
COCC1CN(C(=O)c2ccoc2)Cc2cnn(CC3CCOCC3)c21 (stereo unspecified)	2.433	-	-	2.927
COCc1ncn2c1CN(C(=O)c1ccco1)CC2	-12.08	12.63	0.9982	-4.444